The list shows a part of the results.
test system: T1, CTL2-GFP (C. trachomatis L2/434/Bu, GFP-expressing); parameters: species or system HeLa; Intracellular C. trachomatis growth in HeLa cells, bulk GFP fluorescence relative to DMSO; conditions: bulk GFP, single well; 28.5 h, 10 µM; inhibitor
T1 construct: L2/434/Bu, GFP-expressing

Row | SMILES | % of control remaining [%]
1 | COc1ccc(CCNC(=O)CN2CCCC2Cn2cccn2)cc1 (stereo not drawn) [CBK306147] | 139.13
2 | COc1cccc(-c2cncc(C3CCCN(Cc4ccc5[nH]ccc5c4)C3)n2)c1 (stereo not drawn) [CBK286151] | 148.085
3 | CCOC(=O)c1sc2nc(C)cc(C)c2c1N [CBK097355] | 119.286
4 | O=C(COc1ccc(S(=O)(=O)NC2CCCCC2)cc1)Nc1ccc2c(c1)OCO2 [CBK265960] | 136.27
5 | O=C(Nc1ccccc1N1CCN(C(=O)c2ccc(Cl)cc2)CC1)c1ccc(-c2cc3ccccc3oc2=O)cc1 [CBK267280] | 162.613
6 | Oc1cccnc1N1CCNCC1 [CBK045850] | 110.519
7 | Clc1ccc(SCc2cccc(CSc3ccc(Cl)c(Cl)c3)n2)cc1Cl [CBK223404] | 118.271
8 | Cc1cc(Cl)cc(Cl)c1OCCCc1c(C)n[nH]c1C [CBK025733C] | 100.767
9 | O=C(NCc1ccco1)c1nn(-c2nc3ccccc3s2)c2ccccc12 [CBK048482] | 154.993
10 | CC1(CNS(=O)(=O)Cc2cc(F)cc(F)c2)COC1 [CBK281413] | 114.486
11 | CC(C)NS(=O)(=O)c1ccc(OCC(=O)Nc2ccc3c(c2)OCO3)c(Cl)c1 [CBK267919] | 140.188
12 | CN1C(=O)COc2ccccc2C/C=C/C[C@@H]2[C@H]1CCCN2C(=O)CCCNc1ncccn1 [CBK292168] | 99.5478
13 | CC(=O)c1cccc(-c2cnc(N)c(-c3ccc(O)cc3)n2)c1 [CBK122508] | 127.903
14 | CC(C)NC(=O)[C@H]1CN2CCC1C[C@@H]2Cn1cc(C2(O)CCCC2)nn1 (stereo partly drawn) [CBK289090] | 127.722
15 | Cc1ccc2c(c1)C(NC(=O)C1CCN(S(C)(=O)=O)CC1)CC(C)(C)O2 (stereo not drawn) [CBK307604] | 89.287
16 | Cc1ccc(-c2noc(CN3CCN(c4ccccc4)CC3)n2)cc1 [CBK265924] | 194.068
17 | CN(C)C(=O)CO[C@@H]1CO[C@H]2[C@@H]1OC[C@@H]2Nc1nccc(-c2cccs2)n1 [CBK289515] | 74.7248
18 | Cc1cc(C)nc(N2CCC(c3cc(CCOc4cccc(C(F)(F)F)c4)[nH]n3)C2)n1 (stereo not drawn) [CBK285568] | 143.829
19 | NS(=O)(=O)c1ccc(NC(=S)NC(=O)c2cccc3c(Cl)cccc23)cc1 [CBK268814] | 121.836
20 | Cc1cccc(C2(O)CCN(CC(O)c3ccc4c(c3)CCC4)CC2)c1 (stereo not drawn) [CBK286330] | 131.645
21 | Cn1ccnc1C1(O)C2CCCC1CN(Cc1ccc(F)c(F)c1)C2 (stereo not drawn) [CBK285189] | 81.6914
22 | COc1ccccc1NC(=O)CSCc1nc2ccccc2[nH]1 [CBK268385] | 154.171
23 | CCn1c(=O)sc2cc(Br)ccc21 [CBK026526] | 131.172
24 | O=C(O)CCC(=O)N1CCN(C(=O)c2ccco2)CC1 [CBK286533] | 146.491
25 | CCn1cc(Cl)c(C(=O)NC2CCN(c3cnccn3)CC2)n1 [CBK306922] | 113.966
26 | Cc1ccc(Cl)cc1NC(=O)c1cc([N+](=O)[O-])ccc1NCCN1C(=O)c2ccccc2C1=O [CBK268501] | 120.37

Nothing new here: an excerpt of the list.
Row | SMILES | % of control remaining [%]
1 | COc1ccc(CCNC(=O)CN2CCCC2Cn2cccn2)cc1 (stereo not drawn) [CBK306147] | 139.13
2 | COc1cccc(-c2cncc(C3CCCN(Cc4ccc5[nH]ccc5c4)C3)n2)c1 (stereo not drawn) [CBK286151] | 148.085
3 | CCOC(=O)c1sc2nc(C)cc(C)c2c1N [CBK097355] | 119.286
4 | O=C(COc1ccc(S(=O)(=O)NC2CCCCC2)cc1)Nc1ccc2c(c1)OCO2 [CBK265960] | 136.27
5 | O=C(Nc1ccccc1N1CCN(C(=O)c2ccc(Cl)cc2)CC1)c1ccc(-c2cc3ccccc3oc2=O)cc1 [CBK267280] | 162.613
6 | Oc1cccnc1N1CCNCC1 [CBK045850] | 110.519
7 | Clc1ccc(SCc2cccc(CSc3ccc(Cl)c(Cl)c3)n2)cc1Cl [CBK223404] | 118.271
8 | Cc1cc(Cl)cc(Cl)c1OCCCc1c(C)n[nH]c1C [CBK025733C] | 100.767
9 | O=C(NCc1ccco1)c1nn(-c2nc3ccccc3s2)c2ccccc12 [CBK048482] | 154.993
10 | CC1(CNS(=O)(=O)Cc2cc(F)cc(F)c2)COC1 [CBK281413] | 114.486
11 | CC(C)NS(=O)(=O)c1ccc(OCC(=O)Nc2ccc3c(c2)OCO3)c(Cl)c1 [CBK267919] | 140.188
12 | CN1C(=O)COc2ccccc2C/C=C/C[C@@H]2[C@H]1CCCN2C(=O)CCCNc1ncccn1 [CBK292168] | 99.5478
13 | CC(=O)c1cccc(-c2cnc(N)c(-c3ccc(O)cc3)n2)c1 [CBK122508] | 127.903
14 | CC(C)NC(=O)[C@H]1CN2CCC1C[C@@H]2Cn1cc(C2(O)CCCC2)nn1 (stereo partly drawn) [CBK289090] | 127.722
15 | Cc1ccc2c(c1)C(NC(=O)C1CCN(S(C)(=O)=O)CC1)CC(C)(C)O2 (stereo not drawn) [CBK307604] | 89.287
16 | Cc1ccc(-c2noc(CN3CCN(c4ccccc4)CC3)n2)cc1 [CBK265924] | 194.068
17 | CN(C)C(=O)CO[C@@H]1CO[C@H]2[C@@H]1OC[C@@H]2Nc1nccc(-c2cccs2)n1 [CBK289515] | 74.7248
18 | Cc1cc(C)nc(N2CCC(c3cc(CCOc4cccc(C(F)(F)F)c4)[nH]n3)C2)n1 (stereo not drawn) [CBK285568] | 143.829
19 | NS(=O)(=O)c1ccc(NC(=S)NC(=O)c2cccc3c(Cl)cccc23)cc1 [CBK268814] | 121.836

Going on with the list.

Row | SMILES | % of control remaining [%]
27 | CC(Oc1cccc(C#N)c1)C(=O)N1CCCC1C(=O)NCC(F)(F)F (stereo not drawn) [CBK305435] | 131.894
28 | CCCc1ccc(S(=O)(=O)Nc2ccc(C(=O)N3CCN(C)CC3)cc2)cc1 [CBK034547] | 100
29 | O=C(Nc1cccc(Cl)c1Cl)N1CCC(n2c(=O)[nH]c3ccccc32)CC1 [CBK149856] | 112.337
30 | O=[N+]([O-])c1ccc(CSc2nnc(-c3cccs3)n2Cc2ccco2)cc1 [CBK267588] | 114.79
31 | Cc1cc(Oc2ccccc2)nc(Oc2ccc(=O)n(-c3ccccc3)n2)n1 [CBK269843] | 80.9771
32 | Cc1cc(-c2ccc(=O)n(CCNC(=O)C3CCC3)n2)c(C)o1 [CBK284520] | 81.5477
33 | O=c1ccc2cccc(OCCO)c2o1 [CBK149730] | 148.433
34 | O=C(NC(c1ccccc1)c1ccco1)C1CCN(CCc2c[nH]c3ccccc23)CC1 (stereo not drawn) [CBK148290] | 151.018
35 | CC(=O)N1CCc2cc(-c3cc4cc(C)ccn4c3)ccc21 [CBK285228] | 166.321
36 | O=C(O)c1cccc(NS(=O)(=O)c2ccc3c(c2)OCCO3)c1 [CBK155697] | 126.75
37 | CC(C)(CO)CNc1cncc(-c2cccc(Cl)c2)n1 [CBK037862] | 90.6442
38 | CCn1c(COc2ccc(Cl)c3cccnc23)nnc1SC [CBK266611] | 137.561
39 | O=C(c1ccc2c(c1)OCO2)N1CCN(C(=O)c2ccc(Cl)cc2F)CC1 [CBK296685] | 141.94
40 | CCn1c(=O)n(CC(=O)N2CCCC2)c2cccnc21 [CBK283904] | 92.429
41 | CCOC(=O)CNS(=O)(=O)c1ccc(-c2ccccc2)cc1 [CBK034435] | 106.013
42 | O=C(O)C(Cc1c[nH]cn1)N1C(=O)C2CC=C(Cl)CC2C1=O (stereo not drawn) [CBK286871] | 116.485
43 | C=C(C)CNC(=O)c1ccc(C)nc1N1CCN(C(=O)c2ccco2)CC1 [CBK076401] | 112.166
44 | CCn1c2ccccc2c2cc(NC(=O)C(C)Sc3n[nH]c(=O)n3C3CC3)ccc21 (stereo not drawn) [CBK296636] | 120.69
45 | OCCSCc1ccc2nonc2c1 [CBK020617] | 116.229
46 | COC(=O)c1ccccc1NC(=O)CN(C)S(=O)(=O)c1c(C)cc(C)cc1C [CBK266241] | 112.927
47 | COc1ccc(Sc2nc3ccccc3nc2N2CCCC2)cc1OC [CBK093797] | 102.474
48 | CC(C)(C)C1=CC2=NC3(CCC3)[C@@H]3C[C@@H](O)[C@@H](O)[C@@H]3N2O1 [CBK303243] | 91.0677
49 | CCCc1[nH]nc(O)c1Cc1cc(C(F)(F)F)ccc1Cl [CBK075032] | 121.066
50 | Cc1cccc(OCC(=O)NCCCc2ccccc2)c1C [CBK265507] | 121.586
51 | N=C(N)NC(=N)NCCc1c[nH]c2ccccc12 [CBK267706G] | 104.113
52 | CSc1nc(=O)c(CCC(=O)O)n[nH]1 [CBK019689] | 111.514

Row | SMILES | % of control remaining [%]
53 | c1ccc(-c2ccccc2CN2CCC(Oc3nccnc3OCCN3CCOCC3)CC2)cc1 [CBK082924T] | 100.867
54 | Oc1c(Cl)cc(Cl)cc1/C=N/c1ccc(-c2nc3ccc(/N=C/c4cc(Cl)cc(Cl)c4O)cc3[nH]2)cc1 [CBK261660] | 100
55 | Cc1[nH]c2ccccc2c1C(=O)CSc1nncc2ccccc12 [CBK297912] | 130.621
56 | O=C(c1cccc2ncccc12)N1CCN(CC2CCOC2)CC1 (stereo not drawn) [CBK305140] | 128.363
57 | CC(C)(C)C1CCC(=NNC(=O)c2ccc(CN3CCOCC3)cc2)CC1 (stereo not drawn) [CBK018812] | 101.705
58 | CCCCN(C(=O)c1cc(C)nc2ccccc12)c1ccccc1 [CBK296926] | 121.502
59 | O=C(CC(CC(=O)c1ccc(Cl)cc1)c1ccccc1C(=O)O)c1ccc(Cl)cc1 [CBK265604] | 123.226
60 | Cc1nnc2ncc(-c3ccccc3C(=O)N(C(C)C)C(C)C)cn12 [CBK307393] | 157.894
61 | Cc1nc(C(=N)N)nc2ccccc12 [CBK010368C] | 62.4913
62 | Cc1ccc(/C=C2\SC(=S)N(CC(=O)Nc3cccc(C(=O)O)c3)C2=O)cc1 [CBK263935] | 117.003
63 | CC(=O)c1ccc(C(=O)Nc2sc3c(c2C#N)CCN(C(C)=O)C3)cc1 [CBK304418] | 137.354
64 | Cc1csc(-c2ccc(C(=O)N3CCN(C)CC3)c(N3CCOCC3)n2)c1 [CBK106195] | 139.321
65 | CC(=O)NC(N(C)S(=O)(=O)c1ccc(C)cc1)C(Cl)(Cl)Cl (stereo not drawn) [CBK262662] | 112.915
66 | CC(C)(C)c1ccc(OCC(O)CNS(=O)(=O)O)cc1 (stereo not drawn) [CBK261169N] | 120.79
67 | CCC(=O)N1CCc2cc(C(O)CN3CCCCC3C)ccc21 (stereo not drawn) [CBK283112] | 112.737
68 | COc1ccc([C@@]23CC[C@@H](NC(=O)CNc4ccc(Cl)c(Cl)c4)C[C@@H]2N(C)CC3)cc1OC [CBK038220] | 77.1436
69 | CC(c1ccc(S(C)(=O)=O)cc1)N(C)C(=O)COc1ccc2ccccc2c1 (stereo not drawn) [CBK296738] | 131.163
70 | CC(NC(=O)c1ncoc1-c1ccccc1Cl)c1ccccn1 (stereo not drawn) [CBK282409] | 179.7
71 | Cc1cc(C)cc(NC(=O)CSc2ncccn2)c1 [CBK287577] | 150.982
72 | O=[N+]([O-])c1cccc(/C=N/Nc2nc(-c3ccccc3)cc(-c3ccccc3O)n2)c1 [CBK261722] | 100.327
73 | CC(=O)N1CCc2sccc2C1c1ccc(NCc2ccc(F)c(F)c2)cc1 (stereo not drawn) [CBK286452] | 117.808
74 | C=CCc1cc(C)cc(C)c1OCCN1CCN(CC)CC1 [CBK267392G] | 154.904
75 | O=C(Nc1ccc(S(=O)(=O)Nc2ccc(Cl)c(C(F)(F)F)c2)cc1)c1ccc(CN2CCOCC2)cc1 [CBK264777] | 57.6236
76 | CCC(CC)C(=O)N1c2ccccc2C(C)(c2ccccc2)CC1(C)C (stereo not drawn) [CBK073862] | 89.6513
77 | c1cnc(NCc2cc3n(n2)CCN(CC2CCCCC2)C3)cn1 [CBK307592] | 134.154
78 | O=C(c1cccnc1)N1CCCC(n2cnc3cc(F)ccc32)C1 (stereo not drawn) [CBK284474] | 142.172

Reference: article PMC12040169 (PLOS Biology, 2025)
